The values that follow come from publication PMC11910144.

Sequences of proteins named here, by UniProt entry; tags and fusion partners are left off.
UniProt P67809: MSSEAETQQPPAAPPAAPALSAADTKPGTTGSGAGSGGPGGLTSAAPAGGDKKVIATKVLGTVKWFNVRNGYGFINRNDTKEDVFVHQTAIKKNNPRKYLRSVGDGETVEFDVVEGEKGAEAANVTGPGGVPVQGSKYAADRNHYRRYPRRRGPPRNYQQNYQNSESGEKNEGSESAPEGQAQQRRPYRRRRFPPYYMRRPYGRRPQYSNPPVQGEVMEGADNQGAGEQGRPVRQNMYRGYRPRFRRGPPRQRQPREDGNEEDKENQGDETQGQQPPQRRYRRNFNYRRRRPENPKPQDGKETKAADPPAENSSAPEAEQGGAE
UniProt Q9Y4L5: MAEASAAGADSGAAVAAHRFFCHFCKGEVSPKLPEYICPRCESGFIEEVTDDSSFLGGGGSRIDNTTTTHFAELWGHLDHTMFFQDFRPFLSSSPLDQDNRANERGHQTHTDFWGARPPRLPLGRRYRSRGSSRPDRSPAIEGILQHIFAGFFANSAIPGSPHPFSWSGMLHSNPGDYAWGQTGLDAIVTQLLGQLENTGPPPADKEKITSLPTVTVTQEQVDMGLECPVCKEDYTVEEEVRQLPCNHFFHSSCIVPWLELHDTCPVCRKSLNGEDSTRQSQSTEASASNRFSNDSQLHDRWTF
UniProt P60842: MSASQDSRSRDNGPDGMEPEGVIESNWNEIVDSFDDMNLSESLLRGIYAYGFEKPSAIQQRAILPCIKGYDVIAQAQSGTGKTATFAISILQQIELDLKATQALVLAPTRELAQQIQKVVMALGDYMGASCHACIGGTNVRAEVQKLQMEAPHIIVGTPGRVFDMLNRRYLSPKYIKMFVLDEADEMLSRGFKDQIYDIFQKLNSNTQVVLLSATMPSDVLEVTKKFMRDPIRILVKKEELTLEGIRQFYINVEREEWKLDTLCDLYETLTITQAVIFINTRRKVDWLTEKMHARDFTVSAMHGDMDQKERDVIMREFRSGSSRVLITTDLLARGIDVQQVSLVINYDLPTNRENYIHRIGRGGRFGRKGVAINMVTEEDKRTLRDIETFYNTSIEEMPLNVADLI
UniProt Q02127: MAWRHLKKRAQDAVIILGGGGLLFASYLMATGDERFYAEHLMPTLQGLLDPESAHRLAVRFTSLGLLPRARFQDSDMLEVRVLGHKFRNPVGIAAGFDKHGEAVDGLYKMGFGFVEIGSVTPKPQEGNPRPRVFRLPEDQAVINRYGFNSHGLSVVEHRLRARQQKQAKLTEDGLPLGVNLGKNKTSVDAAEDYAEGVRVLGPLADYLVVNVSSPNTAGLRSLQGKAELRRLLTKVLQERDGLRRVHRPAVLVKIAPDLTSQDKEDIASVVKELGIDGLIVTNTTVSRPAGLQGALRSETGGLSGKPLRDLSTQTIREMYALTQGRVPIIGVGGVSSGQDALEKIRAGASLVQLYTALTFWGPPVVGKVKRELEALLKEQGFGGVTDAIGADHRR

In assay [1] the target is YBX1, endogenous (human (endogenous in Huh7 and HepG2)) (UniProt P67809). As to the kind of experiment: co-IP; endogenous proteins in Huh7 cells, with or without RNase (10 µg/mL, 37°C, 10 min), IgG as a control, western blot. (In general: In western blotting, separated proteins are transferred to a membrane and probed.)
The next assay deals with 3FLAG-RNF115 (UniProt Q9Y4L5). As to the kind of experiment: co-IP; exogenous (transfected, tagged) proteins; antibody cross-linked to protein A/G, lysate incubated overnight at 4°C, western blot; bait and cell line not stated.
Assay [2] deals with Ring Finger Protein 115 (RNF115), endogenous (human (endogenous in the paper's human cell lines; line not stated for this panel)) (UniProt Q9Y4L5). Description: co-IP; endogenous proteins; 10 µg antibody cross-linked to protein A/G, 1000 µg total protein in IP lysis buffer, overnight at 4°C, western blot; bait and cell line not stated.

No constants are given. Whether binding was seen depends on the method and setting. Binding seen in cells or lysates may run through a third protein. Some entries that bind do so weakly or less than the wild type.

For “Eukaryotic Translation Initiation Factor 4A1 (EIF4A1), endogenous (from UniProt P60842 1-406)”, the binding result in assay [1] is listed as “binds”. Consider His-DHODH (from UniProt Q02127 1-395), for which the binding result with 3FLAG-RNF115 is “binds”. Regarding “dihydroorotate dehydrogenase (DHODH), endogenous (from UniProt Q02127 1-395)”, in assay [2], the binding result was “binds”.
